Results are given in words; binding and its absence hold for the method and conditions named. Binding seen in cells or lysates may run through a third protein. Some entries that bind do so weakly or less than the wild type. Sequences can lack the tags named with a protein.
Experiments:
[1] = target: T1, long-chain fatty acid acyl-CoA dehydrogenase (ACADL), wild type, Myc-tagged (UniProt P15650); test: co-IP; Myc-tagged ACADL, 3-KAT or ATP5A immunoprecipitated with anti-Myc-Tag antibody (5 µg, overnight, 4 °C) from cardiomyocytes in 20 mM Tris pH 7.5, 150 mM NaCl, 1 mM EDTA, 1% Triton X-100, protein A/G agarose; blots for Epac1 and CaMKII; cells stimulated or not with 8-CPT-AM (10 µM, 30 min), preincubated or not with CE3F4 (20 µM) or KN-93 (5 µM); IgG as control for IP
T1 sequence: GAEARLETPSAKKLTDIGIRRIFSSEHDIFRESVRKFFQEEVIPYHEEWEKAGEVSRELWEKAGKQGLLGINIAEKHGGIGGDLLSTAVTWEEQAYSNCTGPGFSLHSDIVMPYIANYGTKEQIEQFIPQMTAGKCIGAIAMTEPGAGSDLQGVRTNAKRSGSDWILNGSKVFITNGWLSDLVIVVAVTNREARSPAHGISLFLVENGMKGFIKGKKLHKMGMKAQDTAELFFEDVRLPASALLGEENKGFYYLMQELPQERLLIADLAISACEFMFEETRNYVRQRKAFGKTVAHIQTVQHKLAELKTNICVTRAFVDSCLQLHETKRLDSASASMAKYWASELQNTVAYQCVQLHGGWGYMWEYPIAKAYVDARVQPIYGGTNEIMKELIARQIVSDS

By UniProt entry, the sequences of proteins in these tests, tags left out.
UniProt Q9Z1C8: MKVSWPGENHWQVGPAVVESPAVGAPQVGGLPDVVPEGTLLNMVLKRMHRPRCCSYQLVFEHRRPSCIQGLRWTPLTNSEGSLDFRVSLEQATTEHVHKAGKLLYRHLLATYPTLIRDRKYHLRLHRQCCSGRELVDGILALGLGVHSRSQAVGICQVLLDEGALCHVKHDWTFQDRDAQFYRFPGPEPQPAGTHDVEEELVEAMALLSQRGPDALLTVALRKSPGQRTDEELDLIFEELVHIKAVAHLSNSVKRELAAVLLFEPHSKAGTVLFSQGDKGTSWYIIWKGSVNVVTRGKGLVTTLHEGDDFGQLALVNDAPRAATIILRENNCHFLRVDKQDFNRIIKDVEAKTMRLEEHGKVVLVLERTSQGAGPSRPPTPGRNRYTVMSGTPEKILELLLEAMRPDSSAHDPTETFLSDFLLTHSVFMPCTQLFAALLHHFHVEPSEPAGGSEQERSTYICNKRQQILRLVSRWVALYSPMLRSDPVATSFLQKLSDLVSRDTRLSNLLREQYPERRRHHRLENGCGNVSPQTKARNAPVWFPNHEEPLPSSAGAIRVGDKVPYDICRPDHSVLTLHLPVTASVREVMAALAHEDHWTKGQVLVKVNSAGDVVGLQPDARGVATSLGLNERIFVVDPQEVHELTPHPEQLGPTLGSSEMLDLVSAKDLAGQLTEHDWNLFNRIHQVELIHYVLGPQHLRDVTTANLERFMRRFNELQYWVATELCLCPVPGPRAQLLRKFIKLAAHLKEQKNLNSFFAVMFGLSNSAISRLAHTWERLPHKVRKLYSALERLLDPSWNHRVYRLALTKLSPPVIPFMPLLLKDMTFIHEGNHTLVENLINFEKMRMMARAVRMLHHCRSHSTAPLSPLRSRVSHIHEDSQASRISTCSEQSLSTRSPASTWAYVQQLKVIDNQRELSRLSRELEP

[2] = target: T2, 3-ketoacyl-CoA thiolase (3-KAT), Myc-tagged (UniProt P13437); test: as above
T2 sequence: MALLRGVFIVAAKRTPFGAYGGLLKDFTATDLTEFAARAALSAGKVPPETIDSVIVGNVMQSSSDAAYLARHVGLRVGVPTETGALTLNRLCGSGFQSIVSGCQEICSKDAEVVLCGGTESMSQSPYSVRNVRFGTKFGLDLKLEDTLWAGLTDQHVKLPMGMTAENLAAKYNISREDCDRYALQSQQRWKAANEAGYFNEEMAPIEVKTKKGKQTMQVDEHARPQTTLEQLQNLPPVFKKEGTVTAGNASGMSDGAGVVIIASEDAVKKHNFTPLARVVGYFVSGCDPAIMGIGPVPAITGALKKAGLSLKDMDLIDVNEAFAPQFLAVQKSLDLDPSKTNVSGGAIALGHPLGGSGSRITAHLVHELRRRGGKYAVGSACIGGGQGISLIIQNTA

binding [1]: binds
binding [2]: binds
Substance: exchange protein directly activated by cyclic AMP 1 (Epac1) (from UniProt Q9Z1C8 1-926)

— article PMC8410846
